PubChem BioAssay AID504648 (National Center for Advancing Translational Sciences (NCATS), 2011)
In all, about 390,000 compounds went through this assay and about 610 (0.16%) were called active. Inconclusive means that the source gave no clear call. Such entries were picked first, then a sample of the others. The call rests on the fitted dose curve; in most records, active means well fitted inhibition curve with a large enough effect; inconclusive means small, poorly fitted or top-dose-only effect, or effect the other way, or another doubt; inactive means no such curve, though single readings can be large or run the other way. A potency beside an inconclusive call is a rough fit, not a confirmed value.

Experiment: Nrf2 qHTS screen for inhibitors: counterscreen for cytotoxicity
Conditions: A549 ARE-Fluc cells, CellTiter-Fluor viability, 18-24 h; activity change, negative = cytotoxicity: at 46 µM (top of the series)
Procedure, shortened: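 Cytotoxicity counterscreen: CellTiter-Fluor fluorescence was measured in A549 ARE_Fluc cells after 18-24 h of compound exposure in a concentration series. The subsequent BugLite luminescent read reports ARE-luciferase activity.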
On the % scale 0 is the no-effect control and ±100 the full control effect; potency means the concentration at half of the fitted maximal effect.

Row | SMILES | Potency | activity change, negative = cytotoxicity
1 | OC[C@H]1O[C@@H](n2cnc3c(NCc4ccco4)ncnc32)[C@H](O)[C@@H]1O | inconclusive: 23.1 µM [falling, partial curve, poor fit] | –
2 | Cc1ccc2nc(N3CCC(C(=O)N4CCN(c5cccc(Cl)c5)CC4)CC3)[nH]c2c1 | inconclusive: 20.6 µM [falling, single point] | –
3 | CCOC(=O)c1cnc2ccc(OCC)cc2c1NCCCN1CCOCC1 | inconclusive: 29.1 µM [falling, single point] | –
4 | O=C1C(=O)c2c(C(=O)c3ccccc3)coc2-c2ccccc21 | inconclusive: 29.1 µM [falling, single point] | –
5 | COc1cc(/C=C/c2cc(OC(C)=O)c3ccccc3n2)c(OC(C)=O)c([N+](=O)[O-])c1 | active: 14.6 µM | –
6 | CCCC(C(=O)n1nc(C)cc1C)C(NS(=O)(=O)c1ccc(C)cc1)c1ccccc1 (stereo not given) | inconclusive: 18.4 µM [falling, single point] | –
7 | CCOP(=O)(c1ccccc1)c1nc(-c2ccccc2C)oc1N1CCCCC1 (stereo not given) | inconclusive: 29.1 µM [falling, single point] | –
8 | COc1cc(C(=O)NCC(c2cccs2)S(=O)(=O)c2ccc(F)cc2)cc(OC)c1OC (stereo not given) | inactive | –
9 | Cc1ccccc1-c1noc(-c2ccc(O)cc2)n1 | inconclusive: 20.6 µM [falling, partial curve, poor fit] | –
10 | CC(=NNC(=S)N1CCCCCC1)c1ccccn1 | active: 20.6 µM | –
11 | CCC(C)Sc1cc(-c2nc3ccc(C)cn3c2NCc2ccccc2)ccc1OC (stereo not given) | active: 16.4 µM | –
12 | CCN(CC)C(C)C(=O)Nc1c2c(cc3c1CCC3)CCC2 (stereo not given) | inactive | –
13 | Clc1ccc(/C=C/c2nc3ccccc3[nH]2)cc1 | inactive | –
14 | CC(=O)c1sc(NC(=O)C2(F)C(F)(F)C(F)(F)C(F)(F)C(F)(F)C2(F)F)nc1C | inconclusive: 20.6 µM [falling, single point] | –
15 | Cc1nnc(NC(=O)C2CCCN(S(=O)(=O)c3ccccc3C(F)(F)F)C2)s1 (stereo not given) | inactive | –
16 | Cc1cc(C)n(-c2nc3ccccc3c3nc(C)nn23)n1 | inconclusive: 1.16 µM [activator, full curve, poor fit] | –
17 | COc1cc(NC(=O)COc2cc(O)c3c(c2)OC(C)(C)CC3=O)cc(OC)c1OC | inactive | –
18 | CCOC(=O)c1[nH]c2ccccc2c1NC(=O)CCN1CCN(C(=O)OCC)CC1 | inactive | –
19 | COc1cccc(NC(=S)N(CCCN2CCOCC2)Cc2cn(C)c3ccccc23)c1 | inconclusive: 18.4 µM [falling, partial curve, poor fit] | –
20 | CCN(CC)CCCNC(=O)c1ccc2c(=O)n(CCc3ccccc3)c(=O)[nH]c2c1 | inactive | –
21 | CCOc1ccc(-c2nc(CSCC(=O)N3CCN(c4ccc(F)cc4)CC3)c(C)o2)cc1 | inactive | –
22 | CCCCn1c(SCC(=O)Nc2cc(C(F)(F)F)cc(C(F)(F)F)c2)nnc1C(CC)N(C)C (stereo not given) | inconclusive: 18.4 µM [falling, single point] | –

Row | SMILES | Potency | activity change, negative = cytotoxicity
23 | O=C(CSc1c2c(nc3ccc(Cl)cc13)CCCC2)NCCCN1CCOCC1 | inconclusive: 20.6 µM [falling, single point] | –
24 | COc1ccc(CCNC(=O)C(C)n2nc(C)c3c(C)n(-c4ccc(C)cc4)nc3c2=O)c(OC)c1 (stereo not given) | inconclusive: 16.4 µM [falling, partial curve, poor fit] | –
25 | Cc1ccc(C)c(N2CCN(C(=O)C3CCN(c4nc5ccc(C)cc5[nH]4)CC3)CC2)c1 | inconclusive: 20.6 µM [falling, partial curve, poor fit] | –
26 | Cc1ccc(Nc2c(-c3ccc(N4CCOCC4)cc3)nc3ncccn23)cc1 | inconclusive: 7.31 µM [activator, partial curve, poor fit] | –
27 | Cc1cccc(C)c1OCc1nc2c3cnn(-c4cccc(F)c4)c3ncn2n1 | inactive | –
28 | Cc1ccc(-n2ncc(C(=O)NCCN3CCc4ccccc4C3)c2C2CCN(C(=O)OC(C)(C)C)CC2)cc1 | inconclusive: 29.1 µM [falling, single point] | –
29 | COc1ccc(-n2nc3ccc(N)cc3n2)cc1Cl | inactive | –
30 | CC1(C)CC(n2c(NCCO)nc3c(c2=O)C2(CCCC2)Cc2ccccc2-3)CCO1 (stereo not given) | inactive | –
31 | CCOC(=O)CSC1=C(C#N)C(c2ccccc2OCC)C(C#N)C(=O)N1 (stereo not given) | inactive | –
32 | COc1cc(C2CC(=O)c3c([nH]c(C(=O)OC4CCCCC4)c3C)C2)cc(OC)c1OC (stereo not given) | inconclusive: 18.4 µM [falling, partial curve, poor fit] | –
33 | Cc1ccccc1NC(=O)c1sc2nc3c(cc2c1N)CCCC3 | inactive | –
34 | C#CCOCCOCCOCCNc1nc(N2CCN(C(=O)CCCCCCCCCCNC(=O)[C@@H](CCSC)n3cc(CCO)nn3)CC2)nc(N2CCN(C(=O)CCCCCCCCCCNC(=O)[C@H]([C@@H](C)CC)n3cc(CCCCCN)nn3)CC2)n1 | inconclusive: 20.6 µM [falling, single point] | –
35 | CN(CC(=O)Nc1cccc(C(F)(F)F)c1)S(=O)(=O)c1ccc2[nH]c3c(c2c1)CCCC3 | inconclusive: 32.6 µM [falling, partial curve, poor fit] | –
36 | Cc1ccccc1CN(C)CC(=O)NC(C)CCc1ccccc1 (stereo not given) | inconclusive: 29.1 µM [falling, single point] | –
37 | CCC(C(=O)NC1CCCC1)N(Cc1ccc2c(c1)OCO2)C(=O)c1snc(C(N)=O)c1N (stereo not given) | – | inactive: -11.7% [at 1.84 µM]
38 | COC(=O)CSc1nc(N)c(C#N)c(-c2ccco2)c1C#N | inactive | –
39 | CCC(=O)N1c2ccccc2NC2=C(C(=O)CC(c3ccco3)C2)C1c1ccco1 (stereo not given) | inconclusive: 13 µM [falling, partial curve, poor fit] | –
40 | Cc1ccc(C=NNc2ccc([N+](=O)[O-])cn2)cc1 | inconclusive: 13 µM [falling, partial curve, poor fit] | –
41 | Cc1ccc(-n2[nH]c(C)c(C=Nc3ccc4[nH]c(=O)[nH]c4c3)c2=O)cc1C | inconclusive: 18.4 µM [falling, single point] | –
42 | Cc1nc(CC(=O)Nc2ccc(N(C)C)cc2)cs1 | inactive | –
43 | N#CC(C#N)=C1C=CC=CN1/C(=C\c1ccco1)C(=O)c1ccc(-c2ccccc2)cc1 | inconclusive: 29.1 µM [falling, partial curve, poor fit] | –
44 | CC(C)Cn1cnc2c(Sc3c([N+](=O)[O-])ncn3C)nc(N)nc21 | inconclusive: 29.1 µM [falling, single point] | –

Entries from the list above that have two or more sulfur atoms, in the order listed:
Row | SMILES | Potency | activity change, negative = cytotoxicity
8 | COc1cc(C(=O)NCC(c2cccs2)S(=O)(=O)c2ccc(F)cc2)cc(OC)c1OC (stereo not given) | inactive | –
15 | Cc1nnc(NC(=O)C2CCCN(S(=O)(=O)c3ccccc3C(F)(F)F)C2)s1 (stereo not given) | inactive | –

Remaining list, next part:

Row | SMILES | Potency | activity change, negative = cytotoxicity
45 | COc1ccc(C(=O)N(Cc2ccccc2)Cc2cc3cc4c(cc3[nH]c2=O)OCCO4)cc1 | inactive | –
46 | O=S(=O)(NCc1cccc(Br)c1)c1ccc(-c2cc(C(F)(F)F)on2)s1 | inactive | –
47 | C=CCc1c(C)nc(-c2ccccc2)nc1N/N=C/c1ccncc1 | inconclusive: 8.2 µM [activator, partial curve, poor fit] | –
48 | O=c1[nH]c(=S)[nH]c2c1C(c1cc([N+](=O)[O-])c(N3CCOCC3)cc1N1CCOCC1)O2 (stereo not given) | inconclusive: 13 µM [falling, partial curve, poor fit] | –
49 | COc1cc(NS(C)(=O)=O)ccc1Nc1c2ccccc2nc2ccccc12 | inconclusive: 8.2 µM [falling, partial curve, poor fit] | –
50 | Cc1cc(SCC(=O)Nc2cccc(S(=O)(=O)NC3=NCCCCC3)c2)nc2ccccc12 | inactive | –
51 | COc1ccc(-c2nn(-c3ccccc3)cc2/C=N/O)cc1 | inconclusive: 29.1 µM [activator, partial curve, poor fit] | –
52 | Cc1ccc(O)c(-c2cc(-c3cccc(F)c3)n[nH]2)c1 | inconclusive: 29.1 µM [falling, single point] | –
53 | O=C(NCCc1cccc(Cl)c1)c1ccc(OC2CCN(Cc3ccccn3)CC2)cc1 | inconclusive: 6.51 µM [falling, partial curve, poor fit] | –
54 | CCn1c(CNc2ccc(Cl)cc2)nnc1SCc1ccc(Cl)cc1 | inconclusive: 29.1 µM [falling, single point] | –
55 | Cc1cc(Br)ccc1NC(=O)c1cnc(N2CCN(c3ccccn3)CC2)c2ccccc12 | inconclusive: 9.2 µM [falling, partial curve, poor fit] | –
56 | COc1ccccc1CCNC(=O)CCn1nc(C)c2c(C)n(-c3ccccc3)nc2c1=O | inactive | –
57 | CC(C)Cn1[nH]c2c3c(ccc2c1=O)C(=O)c1ccccc1C3=O | inconclusive: 20.6 µM [falling, single point] | –
58 | O=C(C[C@H]1C[C@H](C(=O)N2CCOCC2)[C@@]2(CCC3CCCC3)c3[nH]c4ccc(Cl)cc4c3CCN2C1=O)NCc1ccco1 | inconclusive: 20.6 µM [falling, partial curve] | –
59 | Cc1c(NC(=O)/C(C#N)=C/c2ccc(-c3cc(Cl)ccc3Cl)o2)c(=O)n(-c2ccccc2)n1C | inconclusive: 16.4 µM [falling, partial curve, poor fit] | –
60 | CSCc1ccc(C(=O)NCc2ccc(F)cc2)cc1 | inconclusive: 20.6 µM [activator, partial curve, poor fit] | –
61 | O=C(NCC1CCCO1)c1cc([N+](=O)[O-])ccc1N1CCC(Cc2ccccc2)CC1 (stereo not given) | inconclusive: 23.1 µM [falling, partial curve, poor fit] | –
62 | COc1cccc(N2CCN(C3C(=O)c4ccccc4N3C(C)=O)CC2)c1 (stereo not given) | inactive | –
63 | O=C(OCc1ccccc1)c1ccc(NCc2cc(O)ccc2O)cc1 | inactive | –
64 | CCc1ccc2nc(N(CCCN(C)C)C(=O)c3ccc(C(=O)c4ccccc4)cc3)sc2c1 | inconclusive: 29.1 µM [falling, single point] | –
65 | CCOc1ccccc1-c1c2cc(O)c(=O)cc-2oc2cc(O)c(O)cc12 | active: 18.4 µM | –

An excerpt from above in order of molar mass, descending.
Row | SMILES | Potency | activity change, negative = cytotoxicity
58 | O=C(C[C@H]1C[C@H](C(=O)N2CCOCC2)[C@@]2(CCC3CCCC3)c3[nH]c4ccc(Cl)cc4c3CCN2C1=O)NCc1ccco1 | inconclusive: 20.6 µM [falling, partial curve] | –
14 | CC(=O)c1sc(NC(=O)C2(F)C(F)(F)C(F)(F)C(F)(F)C(F)(F)C2(F)F)nc1C | inconclusive: 20.6 µM [falling, single point] | –
62 | COc1cccc(N2CCN(C3C(=O)c4ccccc4N3C(C)=O)CC2)c1 (stereo not given) | inactive | –
